# In PubChem BioAssay AID493014 (National Center for Advancing Translational Sciences (NCATS), 2011):
# The other results are listed elsewhere or left out. The main result of the screen is listed elsewhere. These columns were measured beside it and carry no call. Compounds called inactive in the main read-out are mostly missing here. Potencies come from curve fits of mixed quality, noted in brackets.
# Assay: qHTS Assay to Find Inhibitors of Chronic Active B-Cell Receptor Signaling
# Details: ABC-DLBCL IkBa-CBG/CBR reporter, luminescence ratio (green luciferase fused to IkBa over red control in TMD8 lymphoma cells), 4 h
# Summary of the method: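 Compounds up to 46 uM were incubated four hours with TMD8 cells whose green CBG68 luciferase is fused to IkappaBalpha; red CBR luminescence normalised the signal, and concentration-effect curves were fitted to fusion, red and ratio data.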
# [1] = measured here: CBR red luminescence, cell number
Compound,AC50 [1],AC50 (measured here: IkBa-CBG green luminescence)
C=CC[C@H](CC(=O)N(CCO)Cc1ccccc1)C(=O)N[C@@H](COC(=O)[C@@H](CC=C)Cc1ccc(F)cc1)Cc1c[nH]c2ccccc12,"16.4 µM [falling, partial curve]",–
Cc1cc2nc(SCC(=O)Nc3ccccc3C(=O)O)[nH]c2cc1C,"22.4 µM [falling, partial curve, poor fit]",–
CN(C)c1oc(/C=C/c2ccccc2)nc1C#N,"1.84 µM [rising, partial curve, poor fit]",–
Cc1cn2c(=O)c(C(=O)N3CCN(c4ccccc4)CC3)cnc2s1,"18.4 µM [rising, partial curve, poor fit]",–
O=C(Nc1cccc(C(=O)O)c1)Nc1cccc2ccccc12,"14.1 µM [falling, single point]",–
Cc1cc(C)c(C#N)c(SCC2COc3ccccc3O2)n1 (stereo unspecified),"2.24 µM [rising, full curve, poor fit]",–
Cc1ccc(S(=O)(=O)N2CCCC(c3nc(-c4ccc(C)o4)no3)C2)cc1 (stereo unspecified),"7.31 µM [rising, partial curve, poor fit]",–
COc1ccc(/C(N)=N/OC(=O)CCC2CCCC2)cc1,"1.26 µM [rising, full curve, poor fit]",–
COc1ccc(N2C(=O)CC(Nc3cccc(C(C)=O)c3)C2=O)cc1OC (stereo unspecified),"29.1 µM [rising, single point]",–
O=C(O)c1ccc(/C=N/Nc2ncc(Cl)cc2Cl)cc1,"12.6 µM [falling, partial curve, poor fit]",–
O=C(COC(=O)c1ccccc1Br)Nc1cc(S(=O)(=O)N2CCOCC2)ccc1N1CCCC1,"25.1 µM [falling, single point]",–
O=c1[nH]c(-c2ccc3c(c2)OCO3)nc2c1sc(=S)n2-c1ccccc1,"12.6 µM [falling, single point]",–
Cc1cc(C)c(C(N)=O)c(Nc2cccc3ccccc23)n1,"3.26 µM [rising, partial curve, poor fit]",–
O=C(NCCCc1ccccc1)c1cc([N+](=O)[O-])ccc1Cl,"35.5 µM [falling, partial curve, poor fit]",–
Cc1ccc(-n2c(SCC(=O)Nc3cc(C)on3)nc3c([nH]c4ccccc43)c2=O)cc1,"11.6 µM [rising, partial curve, poor fit]",–
COc1cc(C(=O)OC2CSCC2NC(=O)c2ccccc2)cc(OC)c1OC (stereo unspecified),"11.2 µM [falling, single point]",–
Cc1cc(C)n(C(=O)CCCCCC(=O)n2nc(C)cc2C)n1,"8.2 µM [rising, partial curve, poor fit]",–
Oc1ccc(-c2csc(Nc3cccc4ccccc34)n2)cc1O,"17.8 µM [falling, partial curve]",–
CC1CCN(C(=O)CSc2nnc(NC(=O)Nc3ccccc3)s2)CC1,"35.5 µM [rising, single point]",–
CCn1c(SCC(=O)Nc2cc(C)on2)nc2c([nH]c3ccccc32)c1=O,"20 µM [falling, partial curve, poor fit]",–

Compound,AC50 [1],AC50 (measured here: IkBa-CBG green luminescence)
Cc1ccccc1C(=O)N1CCN=C1SCc1ccc([N+](=O)[O-])cc1,"35.5 µM [falling, single point]",–
Cc1ccccc1C(=O)Nc1nnc(SC(C)C)s1,"12.6 µM [falling, partial curve, poor fit]",–
O=C(COC(=O)c1cccnc1Cl)NC(=O)c1ccc(OC(F)F)cc1,"13 µM [rising, single point]",–
COc1cc(C(=O)Nc2cc(-c3ccccc3)[nH]n2)cc(OC)c1OC,"22.4 µM [falling, single point]",–
COC(=O)[C@H]1C[C@@H]1[C@H](NC(=O)c1cnccn1)c1ccccc1,"11.6 µM [rising, partial curve, poor fit]",–
CN1CCN(c2ccc(S(=O)(=O)N3CCOCC3)cc2NC(=O)COc2ccc(F)cc2Cl)CC1,"15.8 µM [falling, single point]",–
NC(=O)c1ccc(NC(=O)CN2CCN(S(=O)(=O)c3ccc4ccccc4c3)CC2)cc1,"29.1 µM [rising, single point]","23.1 µM [falling, single point]"
O=C(CSc1nc2ccccc2c(=O)n1CCCN1CCOCC1)Nc1cccc(S(=O)(=O)N2CCCCCC2)c1,"29.1 µM [falling, single point]",–
Nc1nc(N)c(N=Nc2ccc(S(N)(=O)=O)cc2)c(=O)[nH]1,"3.16 µM [falling, partial curve, poor fit]",–
CC1CCN(CC(O)CN2c3ccccc3Sc3ccccc32)CC1 (stereo unspecified),"7.94 µM [falling, partial curve]",–
Cc1cc(N2CCC(C)CC2)nc(-n2nc(C)cc2C)n1,"10.3 µM [rising, partial curve, poor fit]",–
CC(=O)c1ccc(N2CCCCC2)c(F)c1,"0.501 µM [rising, full curve, poor fit]",–
COc1ccc(/C=C2/SC(=S)N(CCC(=O)N3CCN(C)CC3)C2=O)cc1,"2.24 µM [falling, full curve, poor fit]",–
O=C(O)CC(NC(=O)C1c2ccccc2Oc2ccccc21)c1ccc(Cl)cc1 (stereo unspecified),"20.6 µM [falling, single point]",–
COC(=O)c1cc(NC(=O)CC2NC3CCCCC3NC2=O)cc(C(=O)OC)c1 (stereo unspecified),"7.08 µM [falling, partial curve]",–
O=C(CNC(=O)c1ccc(Br)cc1)c1ccccc1,"12.6 µM [falling, single point]",–
Clc1ccc(/C=C/c2nc3ccccc3[nH]2)c(Cl)c1,"35.5 µM [falling, single point]",–
COc1ccc(C(=O)NCCOc2cccc(Oc3ccccc3)c2)cc1OC,"29.1 µM [falling, single point]",–
Cc1cc(OCC(=O)O)c2ccccc2n1,"31.6 µM [rising, single point]",–
COCCCNc1nc2nonc2nc1N1CCN2CCCC2C1 (stereo unspecified),"35.5 µM [falling, single point]",–

# Structures shown so far that have a nitro group on carbon, in the order listed:
Compound,AC50 [1],AC50 (measured here: IkBa-CBG green luminescence)
O=C(NCCCc1ccccc1)c1cc([N+](=O)[O-])ccc1Cl,"35.5 µM [falling, partial curve, poor fit]",–
Cc1ccccc1C(=O)N1CCN=C1SCc1ccc([N+](=O)[O-])cc1,"35.5 µM [falling, single point]",–
